Reference: PubChem BioAssay AID686938 (Drosophila RNAi Screening Center, 2013)

Test: 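Looking for CRAC channel components and the factors controlling them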 (primary screen)
System: Drosophila S2R+ cells
Reagent: long dsRNA against Drosophila genes, about 0.25 µg dsRNA per well, roughly 10,000 cells
Duration: 5 days of knock-down before the calcium assay
Treatment: thapsigargin (SERCA pump blocker) to empty calcium stores; entry signal taken 4 min after adding it
Measurement: 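Per-well fluo-4 fluorescence in two replicates, unnormalised, measured in resting cells and 4 min after store depletion by the SERCA blocker thapsigargin; ratio of the two present in few wells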
Scale: calcium entry signal: higher = stronger calcium signal after store depletion; resting calcium signal: higher = higher resting calcium signal
Units: calcium entry signal in fluorescence units; resting calcium signal in fluorescence units
Hit rule: 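Called when the plate z-score of the entry-to-rest ratio, mean of duplicates, falls below −3; wells with low overall dye signal (Fmax z below −2) or more than five off-targets excluded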
Calls: active = strongly reduced calcium entry; inactive = no strong reduction
In all, the deposit lists about 23,000 reagents; below is a random part of those with a known target gene and a result. Of all reagents, 75 (0.33%) were called active. 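Raw plate signals without normalisation; calls rest on plate z-scores that were not deposited; ratio present for only 364 wells.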 Not stated in the record: the dose of the treatment.

Herc4 (GeneID 38151) [DRSC08631]
- calcium entry signal, replicate 1: 2.86e7
- calcium entry signal, replicate 2: 3.84e7
- resting calcium signal, replicate 1: 1.34e7
- resting calcium signal, replicate 2: 1.65e7
- outcome: inactive

CG13538 (GeneID 37667) [DRSC04180]
- calcium entry signal, replicate 1: 4.19e7
- calcium entry signal, replicate 2: 4.63e7
- resting calcium signal, replicate 1: 2.05e7
- resting calcium signal, replicate 2: 2.10e7
- outcome: inactive

CG6503 (GeneID 50079) [DRSC16056]
- calcium entry signal, replicate 1: 3.90e7
- calcium entry signal, replicate 2: 4.58e7
- resting calcium signal, replicate 1: 2.00e7
- resting calcium signal, replicate 2: 2.20e7
- outcome: inactive

Edem2 (GeneID 34714) [DRSC02877]
- calcium entry signal, replicate 1: 4.59e7
- calcium entry signal, replicate 2: 3.44e7
- resting calcium signal, replicate 1: 2.04e7
- resting calcium signal, replicate 2: 1.49e7
- outcome: inactive

CG31064 (GeneID 43277) [DRSC14756]
- calcium entry signal, replicate 1: 4.62e7
- calcium entry signal, replicate 2: 5.43e7
- resting calcium signal, replicate 1: 2.18e7
- resting calcium signal, replicate 2: 2.12e7
- outcome: inactive

CG31064 (GeneID 43277) [DRSC15941]
- calcium entry signal, replicate 1: 3.81e7
- calcium entry signal, replicate 2: 6.03e7
- resting calcium signal, replicate 1: 1.95e7
- resting calcium signal, replicate 2: 2.62e7
- outcome: inactive

CG31064 (GeneID 43277) [DRSC15942]
- calcium entry signal, replicate 1: 3.92e7
- calcium entry signal, replicate 2: 5.77e7
- resting calcium signal, replicate 1: 2.00e7
- resting calcium signal, replicate 2: 2.32e7
- outcome: inactive

CG31064 (GeneID 43277) [DRSC15943]
- calcium entry signal, replicate 1: 2.90e7
- calcium entry signal, replicate 2: 5.07e7
- resting calcium signal, replicate 1: 1.64e7
- resting calcium signal, replicate 2: 2.31e7
- outcome: inactive

Gdap2 (GeneID 59173) [DRSC06789]
- calcium entry signal, replicate 1: 4.21e7
- calcium entry signal, replicate 2: 4.59e7
- resting calcium signal, replicate 1: 1.91e7
- resting calcium signal, replicate 2: 1.94e7
- outcome: inactive

Gdap2 (GeneID 59173) [DRSC06790]
- calcium entry signal, replicate 1: 4.01e7
- calcium entry signal, replicate 2: 5.39e7
- resting calcium signal, replicate 1: 1.79e7
- resting calcium signal, replicate 2: 2.02e7
- outcome: inactive

Hen1 (GeneID 36301) [DRSC06139]
- calcium entry signal, replicate 1: 3.94e7
- calcium entry signal, replicate 2: 4.90e7
- resting calcium signal, replicate 1: 1.70e7
- resting calcium signal, replicate 2: 2.43e7
- outcome: inactive

Hen1 (GeneID 36301) [DRSC06140]
- calcium entry signal, replicate 1: 1.87e7
- calcium entry signal, replicate 2: 3.92e7
- resting calcium signal, replicate 1: 9.86e6
- resting calcium signal, replicate 2: 1.54e7
- outcome: inactive
